Where a name gives a salt, the structure may show the parent alone. The list shows a part of the results. Repeats in this data set agree poorly, so a single value says little.
System: MDA-MB-468
Test: phospho-S6 immunofluorescence (DAPI-normalised), per-plate z-score; higher = higher phospho-S6 signal (less pathway suppression)
Details: 24 h
Procedure: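 GPCR-targeted compound library (MedChemExpress HY-L006) tested on MDA-MB-468 PTEN-null TNBC cells in 384-well plates at 0.1, 1 or 10 uM, combined with vehicle, GDC0941 450 nM or lapatinib 1 uM, for 24 h. Phospho-S6 (S240/244) immunofluorescence normalised to DAPI and expressed as a per-plate z-score; values are the mean of biological triplicates.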

[1] = compound 0.1 µM, co-treatment: GDC0941 450 nM
[2] = compound 0.1 µM, co-treatment: lapatinib 1 uM
[3] = compound 0.1 µM, co-treatment: vehicle
[4] = compound 1 µM, co-treatment: GDC0941 450 nM
[5] = compound 1 µM, co-treatment: lapatinib 1 uM
[6] = compound 1 µM, co-treatment: vehicle
[7] = compound 10 µM, co-treatment: GDC0941 450 nM
[8] = compound 10 µM, co-treatment: lapatinib 1 uM
[9] = compound 10 µM, co-treatment: vehicle

| SMILES | phospho-S6 immunofluorescence (z-score) [1] | phospho-S6 immunofluorescence (z-score) [2] | phospho-S6 immunofluorescence (z-score) [3] | phospho-S6 immunofluorescence (z-score) [4] | phospho-S6 immunofluorescence (z-score) [5] | phospho-S6 immunofluorescence (z-score) [6] | phospho-S6 immunofluorescence (z-score) [7] | phospho-S6 immunofluorescence (z-score) [8] | phospho-S6 immunofluorescence (z-score) [9] |
| --- | --- | --- | --- | --- | --- | --- | --- | --- | --- |
| CN(C)C(=O)C(CCN1CCC(O)(c2ccc(Cl)cc2)CC1)(c1ccccc1)c1ccccc1 [Loperamide (hydrochloride)] | 0.38 | 0.48 | 1.3 | 0.49 | -0.68 | 1.01 | -1.31 | -3.22 | -0.37 |
| CC(C)(C)NCC(O)c1cc(O)cc(O)c1 (stereo not given) [Terbutaline (sulfate)] | 0.81 | 1.4 | 1.23 | -0.24 | 2.83 | 0.87 | 0.52 | 1.51 | 1.44 |
| CN1CCN(CCc2ccc(Cl)c(Cl)c2)CC1 [BD1063 (dhydrochloride)] | -0.3 | -0.37 | -0.36 | 0.37 | -0.95 | -1.6 | 0.51 | -1.56 | -0.49 |
| CCCCCCCCOc1ccccc1C(=O)Nc1ccc(C(=O)OCC[N+](C)(CC)CC)cc1 [Otilonium (bromide)] | 0 | 0.04 | -0.18 | 1.3 | 0.83 | -0.39 | -1.43 | 2.8 | 0.94 |
| Cc1ccc(F)cc1C(=O)Nc1ccc(C(=O)N2Cc3cccn3Cc3ccccc32)c(Cl)c1 [Lixivaptan] | -0.16 | 0.6 | -0.06 | -1.4 | 0 | -0.41 | -2.79 | -0.79 | 0.62 |
| C[C@]12CCC(=O)C=C1CC[C@@H]1[C@@H]2[C@@H](O)C[C@@]2(C)[C@H]1CC[C@]2(O)C(=O)CO [Hydrocortisone] | 0.49 | 1.42 | 0.52 | -0.97 | 1.3 | 0.69 | -4.8 | -4.13 | -2.96 |
| C#CCOc1ccc2c(c1)c(-c1ccc(C(C)C)cc1)nc(=O)n2C(C)C [Calcium-Sensing Receptor Antagonists I] | 0.24 | 0.58 | 0.2 | 1.03 | -0.07 | 0.49 | -3.51 | -4.39 | -4.18 |
| O=C(Nc1ccccc1)C12CC1C(=NO)c1ccccc1O2 (stereo not given) | 0.2 | 0.59 | 0.39 | 0 | -0.05 | 0.08 | -0.19 | -0.81 | 0.75 |
| CN(C)CCCN1c2ccccc2Sc2ccccc21 [Promazine (hydrochloride)] | 0.36 | -0.62 | 0.88 | -0.8 | -0.93 | 0.59 | -0.07 | -1.25 | 0.4 |
| CC1(C)O[C@@H]2C[C@H]3[C@@H]4CCC5=CC(=O)C=C[C@]5(C)[C@@]4(F)[C@@H](O)C[C@]3(C)[C@]2(C(=O)CO)O1 [Triamcinolone (acetonide)] | -1.9 | 1.7 | -0.33 | -1.83 | 0.98 | -2.18 | -1.69 | 1.39 | -1.2 |
| Clc1cccc(COc2cncc(N3CCNCC3)n2)c1 | -0.03 | 0.4 | 0.51 | -0.01 | 0 | 0.21 | -1.03 | -4.09 | 0.21 |
| CC(C)(C)NC[C@H](O)COc1nsnc1N1CCOCC1 [(S)-Timolol (Maleate)] | -0.46 | 0.26 | -0.82 | -0.24 | -0.08 | -1.49 | -0.17 | 0.33 | -0.06 |
| CC#C[C@]1(O)CC[C@H]2[C@@H]3CCC4=CC(=O)CCC4=C3[C@@H](c3ccc(N(C)C)cc3)C[C@@]21C [Mifepristone] | 0.03 | 0.61 | 0.28 | -0.5 | -0.59 | 0.7 | -2.47 | 1.14 | -0.01 |
| O=C(c1ccc(F)cc1)C1CCN(CCn2c(=O)[nH]c3ccccc3c2=O)CC1 [Ketanserin] | -1 | -0.95 | 0.55 | -0.53 | -0.24 | 0.55 | -0.64 | -0.02 | -0.85 |
| CC(C)(Cc1nc(-c2ccc(O)cn2)no1)C(=O)NC1=C(C(=O)O)CCCC1 | 1.13 | 1.19 | 1.12 | 1.16 | 0.92 | 1.09 | 0.73 | 0.37 | 1.12 |
| O=C(Nc1ccc(Cl)cc1CN1C(=O)c2ccccc2C1=O)c1ccccc1O | -0.35 | 0.09 | -0.47 | 0.12 | 1.63 | -0.15 | -1.83 | -0.3 | -0.57 |
| CN(C)CCc1c[nH]c2ccc(Cn3cncn3)cc12 [Rizatriptan (benzoate)] | -0.98 | 0.17 | 0.21 | -1.44 | -0.44 | -1.13 | -1.62 | 0.19 | -1.1 |
| COc1nc(C)nc(Cl)c1NC1=NCCN1 [Moxonidine] | -0.5 | 0.1 | 0.38 | 0.27 | -0.04 | 0.23 | 0.49 | 0.68 | 0.7 |
| O=C(CCCN1CCC(O)(c2ccc(Cl)cc2)CC1)c1ccc(F)cc1 [Haloperidol] | 0.66 | 0.15 | 0.43 | 2.25 | -0.47 | -0.28 | 1.78 | -0.01 | 0.93 |
| CNC(=O)[C@H]1O[C@@H](n2cnc3c(NCc4cccc(I)c4)nc(Cl)nc32)[C@H](O)[C@@H]1O | -2.47 | -1.3 | -2.32 | -1.44 | -0.1 | -2.08 | -1.27 | -1.18 | -2.34 |

Three compounds from above, reduced to phospho-S6 immunofluorescence (z-score) [9], phospho-S6 immunofluorescence (z-score) [3] and phospho-S6 immunofluorescence (z-score) [4]:
SMILES	phospho-S6 immunofluorescence (z-score) [9]	phospho-S6 immunofluorescence (z-score) [3]	phospho-S6 immunofluorescence (z-score) [4]
O=C(c1ccc(F)cc1)C1CCN(CCn2c(=O)[nH]c3ccccc3c2=O)CC1 [Ketanserin]	-0.85	0.55	-0.53
CC(C)(Cc1nc(-c2ccc(O)cn2)no1)C(=O)NC1=C(C(=O)O)CCCC1	1.12	1.12	1.16
O=C(Nc1ccc(Cl)cc1CN1C(=O)c2ccccc2C1=O)c1ccccc1O	-0.57	-0.47	0.12

Continuation:

| SMILES | phospho-S6 immunofluorescence (z-score) [1] | phospho-S6 immunofluorescence (z-score) [2] | phospho-S6 immunofluorescence (z-score) [3] | phospho-S6 immunofluorescence (z-score) [4] | phospho-S6 immunofluorescence (z-score) [5] | phospho-S6 immunofluorescence (z-score) [6] | phospho-S6 immunofluorescence (z-score) [7] | phospho-S6 immunofluorescence (z-score) [8] | phospho-S6 immunofluorescence (z-score) [9] |
| --- | --- | --- | --- | --- | --- | --- | --- | --- | --- |
| c1cnc(NCc2ccc(CNc3ncccn3)cc2)nc1 | 0.6 | -0.69 | -0.58 | -0.26 | -0.6 | -1.29 | -0.12 | -0.26 | -0.11 |
| C[C@@H]1C[C@H]2[C@@H]3CCC4=CC(=O)C=C[C@]4(C)[C@@]3(Cl)[C@@H](O)C[C@]2(C)[C@@]1(OC(=O)c1ccco1)C(=O)CCl [Mometasone furoate] | -2 | 0.28 | -1.95 | -2.11 | 1.5 | -1.27 | -0.46 | 0.3 | -1.92 |
| Cc1cc(OCCCS(C)(=O)=O)cc(C)c1-c1cccc(COc2ccc3c(c2)OC[C@H]3CC(=O)O)c1 | -0.16 | -0.5 | 0 | 0.08 | -0.03 | -0.36 | -1.06 | 0.1 | -0.32 |
| NC[C@H](O)c1ccc(O)c(O)c1 [Norepinephrine (bitartrate monohydrate)] | 0.22 | 1.3 | -0.17 | 0.89 | 2 | 0.73 | 0.52 | 1.81 | 0.17 |
| COCCOc1ccc(N2CCN(CCn3ncc4c3nc(N)n3nc(-c5ccco5)nc43)CC2)cc1 [Preladenant] | 0.7 | -0.86 | 0.36 | -0.67 | 0.18 | 0.71 | -0.66 | 0.79 | 0.97 |
| CSc1ccc2c(c1)N(CCC1CCCCN1C)c1ccccc1S2 (stereo not given) [Thioridazine (hydrochloride)] | 1.03 | 0.66 | -0.82 | 1.54 | -0.06 | -0.18 | -5.09 | -8.27 | -7.88 |
| NCCCC[C@H](NC(=O)[C@@H]1CCCN1C(=O)[C@@H]1CSSC[C@H](NC(=O)CNC(=O)CNC(=O)CN)C(=O)N[C@@H](Cc2ccc(O)cc2)C(=O)N[C@@H](Cc2ccccc2)C(=O)N[C@@H](CCC(N)=O)C(=O)N[C@@H](CC(N)=O)C(=O)N1)C(=O)NCC(N)=O [Terlipressin] | -0.33 | 1.22 | 0.1 | -0.25 | 1.31 | 0.17 | 0.05 | 0.98 | 0.08 |
| NC(=O)C(c1ccccc1)(c1ccccc1)[C@@H]1CCN(CCc2ccc3c(c2)CCO3)C1 [Darifenacin (hydrobromide)] | -0.12 | 0.82 | -0.22 | -0.22 | -0.5 | -0.75 | -1.6 | -1.5 | 0.03 |
| CC(C)Oc1ccc(-c2nc(-c3cccc4c3CC[C@@H]4NCCO)no2)cc1C#N [Ozanimod] | -1.63 | -0.18 | 0.23 | -1.04 | 0.97 | 0.48 | 0.72 | -0.62 | -0.3 |
| Cc1c(C(=O)NN2CCCCC2)nn(-c2ccc(Cl)cc2Cl)c1-c1ccc(I)cc1 | 0.26 | -0.61 | -0.13 | -1.15 | -0.27 | -0.48 | -1.91 | -1.68 | -2.82 |
| CC(=O)OCC(=O)[C@@]1(O)[C@H](C)C[C@H]2[C@@H]3CCC4=CC(=O)C=C[C@]4(C)[C@@]3(F)[C@@H](O)C[C@@]21C [Dexamethasone (acetate)] | -1.09 | 0.68 | 1.15 | -0.57 | 1.44 | 1.25 | 0.07 | 0.45 | 1.18 |
| NCCc1c[nH]cn1 [Histamine (phosphate)] | -0.68 | 0.86 | -0.28 | 1.23 | -0.18 | -0.15 | -0.41 | -0.13 | 0.1 |
| COc1ccccc1N1CCN(CC(O)COc2cccc3ccccc23)CC1 (stereo not given) [Naftopidil] | 0.85 | -0.12 | 0.13 | -0.08 | 0.21 | 0.69 | -0.13 | -0.63 | 0.64 |
| CCc1cc(/C(C)=N/OCc2ccc(C3CCCCC3)c(C(F)(F)F)c2)ccc1CN1CC(C(=O)O)C1 [Siponimod] | 1.22 | 1.11 | 0.32 | 0.98 | 1.09 | 0.51 | -0.49 | 0.38 | 0.15 |
| CN1CCCC(n2nc(Cc3ccc(Cl)cc3)c3ccccc3c2=O)CC1 (stereo not given) [Azelastine (hydrochloride)] | 0.61 | 1.32 | -0.51 | -0.67 | 1.48 | 0.24 | 0.6 | -0.25 | 0.16 |
| c1ccc2c(CC3=NCCN3)cccc2c1 [Naphazoline (hydrochloride)] | 0.43 | -0.77 | 0.38 | -0.65 | -0.81 | -0.06 | -0.78 | 0.03 | 0.05 |
| N[C@@H](CCC(=O)O)C(=O)[O-].[Na+] [L-Glutamic acid monosodium salt] | -0.04 | -1.12 | -0.96 | -0.12 | -0.95 | -0.69 | 0.12 | -0.6 | -0.39 |
| COC(=O)[C@H]1[C@H]2C[C@H]3c4[nH]c5ccccc5c4CCN3C[C@H]2CC[C@@H]1O [Rauwolscine (hydrochloride)] | 0.23 | -1.38 | 0.12 | 0 | -0.67 | -0.67 | 0.42 | 0.38 | -0.22 |
| CCC(=O)NC[C@@H]1C[C@H]1c1cccc2c1CCO2 [Tasimelteon] | 0.9 | -0.28 | 0.02 | -0.29 | 0.79 | 0.38 | -1.06 | -0.25 | 0.27 |
| C[N+]1(C)[C@@H]2C[C@@H](OC(=O)C(O)(c3cccs3)c3cccs3)C[C@H]1[C@@H]1O[C@@H]12 [Tiotropium (Bromide)] | -0.5 | -0.48 | -0.23 | -0.28 | -0.19 | -0.32 | -0.58 | 0.42 | -0.69 |

From the supplement of paper PMC7411640
